# Measurements taken from PubChem BioAssay AID2685 (National Center for Advancing Translational Sciences (NCATS), 2010).
# The other results are listed elsewhere or left out. The main result of the screen is listed elsewhere. These columns were measured beside it and carry no call. Most of these compounds were active or inconclusive in the main read-out, so they are no random draw. Potencies come from curve fits of mixed quality, noted in brackets.
# Test: qHTS Assay for Lipid Storage Modulators in Drosophila S3 Cells;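 on cell number change: cells counted by Cell Tracker Red CMTPX staining in the red channel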
# Details: BODIPY lipid droplet fluorescence, 18-24 h; for cell number change: measured here: cell count max response, cells fed with added oleic acid
# Summary of the method: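 Drosophila S3 cells got compounds at several concentrations plus oleic acid (400 uM solution). Laser-scanning cytometry with 488 nm excitation read lipid droplets at 500-530 nm and cells at 575-640 nm. Percent activity was relative to 20 uM Triacsin C.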
# [1] = measured here: lipid fluorescence (Fed channel) AC50, cells fed with added oleic acid
# [2] = measured here: cell number channel AC50, cells fed with added oleic acid
SMILES,cell number change [%],AC50 [1],AC50 [2]
CCn1c2ccccc2c2cc(C3C(C#N)=C(N)Oc4n[nH]c(COC)c43)ccc21 (stereo not given),-10.2,"1.84 µM [rising, full curve]",
O=C(Cn1nc(-c2ccccc2)c2ccccc2c1=O)NCCN1CCOCC1,-21.6,,
COCCNC(=O)c1ccccc1NC(=O)c1cccc([N+](=O)[O-])c1C,3.28,,
CC1(C)C2CCC1(C)C(OC(=O)CSc1nc(N)cc(=O)[nH]1)C2 (stereo not given),-22.3,"0.92 µM [falling, full curve]",
Cc1ccc(N(CC(=O)NCc2ccccc2)C(=O)CCC(=O)Nc2nccs2)cc1,32.5,"1.16 µM [falling, single point]","25.9 µM [rising, single point]"
O=C(NCCCNC(=O)c1ccccn1)c1cccc(F)c1,4.76,,
Clc1ccccc1OCCCCn1ccnc1,189,"1.64 µM [rising, partial curve]",
N#Cc1cc(Oc2cccc3cccnc23)c(-n2nnc3ccccc32)cc1C#N,,"25.9 µM [falling, partial curve, poor fit]",
O=C(O)CCC(=O)N1CCc2cc(S(=O)(=O)N3CCCCC3)ccc21,-25,"10.3 µM [falling, single point]",
Cc1ccc(C)c(C(=O)COC(=O)c2nn(C)c(=O)c3ccccc23)c1,0.468,"0.366 µM [falling, full curve]","0.259 µM [falling, full curve, poor fit]"
CC(NC(=O)COC(=O)/C=C/c1ccc([N+](=O)[O-])cc1)c1ccccc1 (stereo not given),7.92,"0.058 µM [falling, full curve]",
Cc1ccccc1-c1nc(CS(=O)CC(=O)NCc2ccc3c(c2)OCO3)c(C)o1 (stereo not given),-11.4,"29.1 µM [rising, single point]",
Cc1cccc(NC(=O)c2ccc(NC(=O)c3ccccc3Br)cc2)c1,-19.1,"1.16 µM [falling, partial curve, poor fit]",
CCOC(=O)c1sc2nccc(N(C)C)c2c1N=CN(C)C,24.8,"29.1 µM [rising, single point]",
O=C(CSc1nnnn1-c1cccc(F)c1)NC1CCCCC1,22.6,"1.46 µM [falling, partial curve, poor fit]",
CC1Sc2ccc(S(=O)(=O)N3CCC(C(=O)NCc4ccc(Cl)cc4)CC3)cc2NC1=O (stereo not given),-12.5,,"0.82 µM [rising, single point]"
COc1ccc(N(CC(=O)N/N=C(\C)c2cccs2)S(=O)(=O)c2ccccc2)cc1Cl,22.1,"29.1 µM [falling, single point]","0.0206 µM [rising, full curve, poor fit]"
COC(=O)c1[nH]c2ccccc2c1Sc1ccccc1,-2.13,,
CCCOc1ccc(N2C(=O)CC(N(CCc3ccc(OC)c(OC)c3)C(=S)Nc3ccccc3)C2=O)cc1 (stereo not given),-7.21,"8.2 µM [falling, partial curve]",
CS(=O)(=O)c1cnc2c(S(=O)(=O)c3ccccc3)cnn2c1N,-48.9,"0.0326 µM [falling, full curve]","3.26 µM [falling, partial curve, poor fit]"

SMILES,cell number change [%],AC50 [1],AC50 [2]
CCCC[C@H]1COCCS(=O)(=O)N1Cc1cccc([N+](=O)[O-])c1,18.8,"29.1 µM [rising, single point]","7.31 µM [rising, partial curve, poor fit]"
O=C(NCC1CCCO1)c1ccc(COCC(F)(F)C(F)F)cc1 (stereo not given),29.1,,
O=C(CCN1C(=O)COc2ccccc21)N1CCCCC1,41.8,"3.26 µM [rising, single point]","7.31 µM [rising, partial curve, poor fit]"
N#CC1=C(N)Oc2c(O)cc3ccccc3c2C1c1ccsc1 (stereo not given),-40.4,"29.1 µM [falling, single point]","29.1 µM [falling, single point]"
CC(C)c1ccc(/C=N/NC(=O)c2cccc(S(=O)(=O)N3CCOCC3)c2)cc1,4.87,,"0.00461 µM [rising, full curve, poor fit]"
COCCNC(=S)N1CCc2cc(OC)c(OC)cc2C1COc1cc(C)cc(C)c1 (stereo not given),0.0569,"0.206 µM [falling, full curve, poor fit]",
CCCCn1c(-c2nonc2N)nc2ccccc21,-30.9,,"16.4 µM [falling, single point]"
Cc1cccc(OCCNS(=O)(=O)c2ccc(Cl)cc2)c1,-48.3,"29.1 µM [falling, single point]","20.6 µM [falling, single point]"
Cc1ccc2c(c1)[nH]c1c(N3CCN(Cc4ccccc4)CC3)ncnc12,-9.35,"6.51 µM [falling, single point]",
CCOC(=O)NC(=O)c1cn(Nc2ccccc2C(F)(F)F)c(=O)[nH]c1=O,6.88,"23.1 µM [falling, single point]",
CC(C)c1nc(SCC(=O)N2CCCCCC2)c2c(=O)n(C)c(=O)n(C)c2n1,-43.5,"1.46 µM [falling, full curve]","4.61 µM [falling, partial curve]"
COC(=O)CSc1nnc(CNS(=O)(=O)c2ccc(Br)cc2)n1C,189,,
COc1cc(/C=N/NC(=O)c2ccc(O)cc2)ccc1Oc1ccc([N+](=O)[O-])cn1,-16.2,,
CN1CCc2c(sc(/N=C/c3cccs3)c2C(N)=O)C1,-0.694,"1.03 µM [rising, full curve, poor fit]",
COCCNc1nnc(SCC(=O)N(C)c2c(N)n(Cc3ccccc3)c(=O)[nH]c2=O)s1,-9.35,"1.64 µM [falling, partial curve, poor fit]","0.103 µM [falling, full curve, poor fit]"
O=C(c1cc2ccccc2o1)N(Cc1ccco1)Cc1cccs1,37.3,,"1.3 µM [rising, full curve, poor fit]"
Cc1ccccc1CSCCNC(=O)CN(c1ccc2c(c1)OCO2)S(C)(=O)=O,3.75,,
COc1ccccc1/C=C/C(=O)NC(=S)N(C)C1CCCCC1,3.74,,
COC(=O)c1ccc(CN2C(=O)C3CCCCC3C2=O)o1 (stereo not given),-11,"29.1 µM [falling, single point]",
COc1cc2c(cc1OC)CN(C1CCC(C)CC1)CC2 (stereo not given),-20.7,"29.1 µM [rising, single point]",

SMILES,cell number change [%],AC50 [1],AC50 [2]
CC(C)CN(C(=O)CN1CCN(c2ccc([N+](=O)[O-])cc2)CC1)c1c(N)n(CC(C)C)c(=O)[nH]c1=O,30.2,"18.4 µM [rising, single point]","18.4 µM [rising, single point]"
C/C(=N\N=C\c1ccc(N(C)C)cc1)c1cccc([N+](=O)[O-])c1,27.2,"0.731 µM [rising, full curve, poor fit]",
Cc1nc2ccc(NC(=O)c3cccc(C(F)(F)F)c3)cc2o1,,,"5.17 µM [falling, single point]"
CC(C)N=c1c([N+](=O)[O-])nn(C)n1O,-42.3,,"29.1 µM [falling, single point]"
CCCCOc1ccc(C(=O)NCCC(=O)NCCCC(=O)OCC)cc1,-33.1,"29.1 µM [falling, single point]",
CCOc1ncccc1C(=O)N(CC)CC(=O)NCc1ccc(F)cc1,,"6.51 µM [falling, single point]",
CN(C)c1ccc(/C=C/c2ccc3c4ccccc4ccc3[n+]2-c2ccccc2)cc1,-28.2,,
COc1ccc(Oc2nc3c(c(=O)n(C)c(=O)n3C)n2Cc2cccc(OC)c2)cc1,21.4,"0.146 µM [rising, full curve, poor fit]",
CCCn1c(SCC(=O)NC2CCCCC2)nnc1-c1ccccn1,15.7,,
Cc1ccc(Cn2nnc3c(=O)n(CC(=O)c4ccccc4)cnc32)cc1,-18,"5.8 µM [falling, full curve]",
Cc1ccc2c(COC(=O)c3c(C)noc3C)cc(=O)oc2c1,-18.5,"20.6 µM [rising, single point]","0.146 µM [rising, full curve, poor fit]"
S=C(NCc1ccccc1)NC1CCSc2ccccc21 (stereo not given),,"6.51 µM [falling, single point]",
Cc1nc2c(S(=O)(=O)c3ccccc3)cnn2c(C)c1C,-39,"29.1 µM [falling, single point]","16.4 µM [falling, single point]"
CC(C(=O)O)c1n[nH]c(=O)c2ccccc12 (stereo not given),12.2,"29.1 µM [rising, single point]",
CCn1c(=O)n(CC)c2cc(S(=O)(=O)N3CCCCC3)c(C)cc21,19.4,,
CC(=O)CSc1cc(C)nc2c(-c3ccccc3)c(C)nn12,11,"1.16 µM [rising, full curve, poor fit]",
O=[N+]([O-])c1ccccc1OCCCn1cnc2ccccc21,-4.92,"32.6 µM [falling, single point]",
CCN(CC)S(=O)(=O)c1cc(C(=O)Oc2ccccc2OC)ccc1OC,7.74,,
CN(c1cccc(NC(=O)CN(c2ccc(C34CC5CC(CC(C5)C3)C4)cc2)S(C)(=O)=O)c1)S(C)(=O)=O,-37.5,,"0.82 µM [falling, full curve, poor fit]"
CCc1nnc(NC(=O)C2CCN(c3ncnc4sc(C)c(C)c34)CC2)s1,7,,

# One compound at a time, as listed above:
# O=[N+]([O-])c1ccccc1OCCCn1cnc2ccccc21 is entered as cell number change [%]: -4.92; AC50 [1]: 32.6 µM [falling, single point]
# CC(C(=O)O)c1n[nH]c(=O)c2ccccc12 (stereo not given) is entered as cell number change [%]: 12.2; AC50 [1]: 29.1 µM [rising, single point]
# CCCCOc1ccc(C(=O)NCCC(=O)NCCCC(=O)OCC)cc1 is entered as cell number change [%]: -33.1; AC50 [1]: 29.1 µM [falling, single point]
# CCn1c(=O)n(CC)c2cc(S(=O)(=O)N3CCCCC3)c(C)cc21 is entered as cell number change [%]: 19.4
